Values from PubChem BioAssay AID1259307 (Sanger Institute, 2017).

Assay: 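siRNA kinome screen seeking kinases whose loss harms SW620 cells alone or with drugs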 (primary screen)
Cells: SW620 colorectal cancer cells
Knock-down reagent: siRNA pool against human genes
Conditions: anchor drugs BYL719 at 1 µM, cetuximab at 5 µg/ml or trametinib at 10 nM, each beside a DMSO vehicle arm
Read-out: 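Cell viability in each well relative to non-targeting controls, averaged over replicates and turned into a robust z-score; synergy with BYL719 (1 µM), cetuximab (5 µg/ml), trametinib (10 nM) versus DMSO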
Reading the numbers: viability robust z-score, no drug and viability vs control, no drug: higher = more viable cells; synergy score with BYL719: higher = stronger synthetic lethality with the drug
Rule for the call: 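Essential when the viability robust z-score without drug is under -3; synergy scores are ignored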
Meaning of the calls: active = essential (lethal alone); inactive = no change alone
The deposit covers 794 reagents; this is a part drawn at random. Of all reagents, 15 (1.9%) are marked active. 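Calls reflect lethality without any drug; synergy scores did not enter the calls.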 No viability above 1 is reported: the scale is capped. Not all columns of the deposit are shown. Not stated in the record: the amount of reagent, the time to read-out.

gene	viability robust z-score, no drug	viability vs control, no drug	synergy score with BYL719	call
CDK5	0.736	1	-0.0761	inactive
PTEN	0.736	1	0.00692	inactive
SMAD2	-0.442	0.891	-0.0177	inactive
EPHA1	-1.09	0.832	-0.0911	inactive
MAP2K4	0.736	1	-0.0144	inactive
ERBB2	0.127	0.944	-0.0906	inactive
PRKDC	-0.594	0.877	-0.0189	inactive
LCK	-1.02	0.838	-0.0309	inactive
NEK7	0.394	0.968	-0.0117	inactive
PRKD1	-0.0798	0.925	-0.16	inactive
GK	-0.809	0.857	-0.0364	inactive
EPHA6	0.736	1	0.148	inactive
PRKAB1	-0.0213	0.93	0.132	inactive
CDK11B	-2.12	0.737	-0.0313	inactive
HIPK4	0.736	1	-0.0629	inactive
PKN3	-0.981	0.842	-0.228	inactive
IP6K1	0.125	0.944	-0.111	inactive
NME4	0.324	0.962	0.0151	inactive
CERT1	0.736	1	-0.0727	inactive
EEF2K	0.736	1	0.112	inactive

The list goes on; the last 2 above are carried over.
gene	viability robust z-score, no drug	viability vs control, no drug	synergy score with BYL719	call
CERT1	0.736	1	-0.0727	inactive
EEF2K	0.736	1	0.112	inactive
PDK1	0.542	0.982	0.0476	inactive
CDK12	0.335	0.963	0.0047	inactive
RELA	0.619	0.989	-0.0773	inactive
MAP4K2	-1.82	0.764	-0.138	inactive
GK2	-0.697	0.868	-0.0768	inactive
ABL1	0.736	1	0.0137	inactive
BRDT	-1.57	0.788	-0.182	inactive
TRPM7	0.462	0.975	0.052	inactive
KIT	-0.691	0.868	-0.146	inactive
ACVR2A	0.368	0.966	-0.000925	inactive
SIK3	-1.77	0.769	-0.25	inactive
EPHB2	-0.0968	0.923	-0.0253	inactive
ALK	0.473	0.976	0.16	inactive
ADGRL2	0.736	1	0.069	inactive
